Counter-ions that a name gives are not always drawn. ± gives the standard deviation of the averaged measurements. The list shows a part of the results. These are raw signals, not scaled to a control.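 Ribosome-assembly readouts in HeLa cells were imaged via ENP1 staining, with or without export block, or inducible tagged ribosomal protein reporters. Machine learning classified per-cell signal location versus solvent (DMSO) controls. Hits surpassed the DMSO false-positive mean by five standard deviations and were visually confirmed; three biological replicates.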
Each compound was assayed on HeLa K (ENP1 immunofluorescence, +LMB) (assay: fraction of cells with nucleolar or nucleolar/nucleoplasmic ENP1 signal (MainHitrate); higher = more cells with nucleolar/nuclear readout signal (for ENP1 -LMB: less RNAPI inhibition; for +LMB ENP1 and RP reporters: stronger nuclear/nucleolar retention, i.e. ribosome biogenesis defect)). Conditions: concentration: 1 µM; treatment time: 6 h; ENP1 +LMB; leptomycin B: 20 nM, last 1.5 h.
In the case of `CCCCCCCCCCCCCCCCCCCCCCO` [Docosanol (Abreva)], the fraction is reported as 0.165 ± 0.22. Compound `O=C1CC[C@@H](C(=O)N2CSC[C@H]2C(=O)O)N1` [Pidotimod] has a fraction of 0.122 ± 0.16. `CCCC(=O)O[C@]1(C(=O)COC(C)=O)CC[C@H]2[C@@H]3C[C@H](F)C4=CC(=O)C=C[C@]4(C)[C@@]3(F)[C@@H](O)C[C@@]21C` [Difluprednate] was tested, and the fraction was 0.0989 ± 0.14. Compound `C[C@]12CCC(=O)C=C1[C@@H]1C[C@@H]1[C@H]1[C@@H]3[C@@H]4C[C@@H]4[C@@]4(CCC(=O)O4)[C@@]3(C)CC[C@@H]12` [Drospirenone] has a fraction of 0.103 ± 0.14. With `C[C@]12CC[C@@H]3c4ccc(O)cc4C[C@@H](CCCCCCCCC[S+]([O-])CCCC(F)(F)C(F)(F)F)[C@H]3[C@@H]1CC[C@@H]2O` (stereo not given in full) [Fulvestrant (Faslodex)] the fraction was 0.0679 ± 0.061. `CC(=O)OCC[N+](C)(C)C` [Acetylcholine chloride] showed a fraction of 0.0716 ± 0.1. For `CC(C)[N+]1(C)[C@@H]2CC[C@H]1C[C@@H](OC(=O)C(CO)c1ccccc1)C2` (stereo not given in full) [Ipratropium bromide], the fraction was 0.0718 ± 0.055. Work on `Cc1ccnc(NS(=O)(=O)c2ccc(N)cc2)n1` [Sulfamerazine] yielded a fraction of 0.068 ± 0.07. `Clc1ccc(C(Cn2ccnc2)OCc2ccsc2Cl)c(Cl)c1` (stereo not given) [Tioconazole] was tested, and the fraction was 0.0969 ± 0.14. `Nc1ccn(C[C@@H](CO)OCP(=O)(O)O)c(=O)n1` [Cidofovir (Vistide)] showed a fraction of 0.068 ± 0.048. `C[C@@H](O[C@H]1OCCN(Cc2nn(P(=O)(O)O)c(=O)[nH]2)[C@H]1c1ccc(F)cc1)c1cc(C(F)(F)F)cc(C(F)(F)F)c1` [Fosaprepitant dimeglumine] gave a fraction of 0.113 ± 0.15. Work on `Clc1ccc2c(c1)CCc1cccnc1C2=C1CCNCC1` [Desloratadine] yielded a fraction of 0.107 ± 0.16. `CN1CCN(C2=Nc3ccccc3Oc3ccc(Cl)cc32)CC1` [Loxapine Succinate] was tested, and the fraction was 0.0535 ± 0.07. In the case of `CS(=O)(=O)c1ccc([C@@H](O)[C@@H](CO)NC(=O)C(Cl)Cl)cc1` [Thiamphenicol (Thiophenicol)], the fraction is reported as 0.0579 ± 0.06. `COc1ccc2cc(CCC(C)=O)ccc2c1` [Nabumetone] showed a fraction of 0.0509 ± 0.054. Work on `CC(=O)Oc1ccccc1C(=O)Nc1ncc([N+](=O)[O-])s1` [Nitazoxanide (Alinia, Annita)] yielded a fraction of 0.138 ± 0.16. `CCOc1ccccc1OC(c1ccccc1)C1CNCCO1` (stereo not given) [Reboxetine mesylate] gave a fraction of 0.0986 ± 0.14. In the case of `N=C(N)Nc1ccc(C(=O)Oc2ccc3cc(C(=N)N)ccc3c2)cc1` [Nafamostat mesylate], the fraction is reported as 0.106 ± 0.14. With `CC[C@H](C)C(=O)O[C@H]1CCC=C2C=C[C@H](C)[C@H](CC[C@@H]3C[C@@H](O)CC(=O)O3)[C@H]21` [Mevastatin] the fraction was 0.0505 ± 0.059. Compound `CC(=O)O[C@H]1CC[C@@]2(C)C(=CC[C@@H]3[C@@H]2CC[C@]2(C)C(c4cccnc4)=CC[C@@H]32)C1` [Abiraterone Acetate (CB7630)] has a fraction of 0.136 ± 0.21. `N[C@@H](CSCCCO)C(=O)O` [Fudosteine] gave a fraction of 0.0923 ± 0.13. `Cc1c(Nc2ncccc2C(=O)O)cccc1C(F)(F)F` [Flunixin meglumin] was tested, and the fraction was 0.077 ± 0.098. `Cc1nnc(C(C)C)n1C1C[C@H]2CC[C@@H](C1)N2CC[C@H](NC(=O)C1CCC(F)(F)CC1)c1ccccc1` (stereo in doubt) [Maraviroc] showed a fraction of 0.0813 ± 0.088. `C[N+](C)(C)CCCCCC[N+](C)(C)C` [Hexamethonium bromide] showed a fraction of 0.0713 ± 0.085. `O=C1c2cccc3c2[C@H](CCC3)CN1[C@@H]1CN2CCC1CC2` [Palonosetron HCl] gave a fraction of 0.0874 ± 0.12. Work on `CCOC(=O)C1=C(COCCN)NC(C)=C(C(=O)OC)C1c1ccccc1Cl` (stereo not given) [Amlodipine besylate (Norvasc)] yielded a fraction of 0.066 ± 0.09. In the case of `CCCNCC(O)COc1ccccc1C(=O)CCc1ccccc1` (stereo not given) [Propafenone (Rytmonorm)], the fraction is reported as 0.125 ± 0.17. In the case of `COc1ccc(-n2nc(C(N)=O)c3c2C(=O)N(c2ccc(N4CCCCC4=O)cc2)CC3)cc1` [Apixaban], the fraction is reported as 0.0785 ± 0.087. In the case of `O=C(O)c1ccc(NC(=O)[C@H](Cc2ccc(O)cc2)NC(=O)c2ccccc2)cc1` [Bentiromide], the fraction is reported as 0.135 ± 0.16. Compound `Cc1nc2n(c(=O)c1CCN1CCC(c3noc4cc(F)ccc34)CC1)CCCC2O` (stereo not given) [Paliperidone (Invega)] has a fraction of 0.0932 ± 0.1. With `CCOc1ccc2ccccc2c1C(=O)N[C@@H]1C(=O)N2[C@@H]1SC(C)(C)[C@@H]2C(=O)O` [nafcillin sodium monohydrate] the fraction was 0.076 ± 0.093. With `O=C(CCCN1CC=C(n2c(=O)[nH]c3ccccc32)CC1)c1ccc(F)cc1` [Droperidol] the fraction was 0.064 ± 0.072. `CNCC[C@H](Oc1cccc2ccccc12)c1cccs1` [Duloxetine HCl (Cymbalta)] gave a fraction of 0.0407 ± 0.046. With `CN(C)[C@@H]1C(O)=C(C(=O)NCN2CCCC2)C(=O)[C@@]2(O)C(O)=C3C(=O)c4c(O)cccc4[C@@](C)(O)[C@H]3C[C@@H]12` [Rolitetracycline] the fraction was 0.117 ± 0.14. Work on `NNc1nncc2ccccc12` [Hydralazine hydrochloride] yielded a fraction of 0.102 ± 0.15. `NC(=O)Cc1cccc(C(=O)c2ccccc2)c1N` [Nepafenac] showed a fraction of 0.0884 ± 0.089. With `O=C1O[C@H]([C@@H](O)CO)C(O)=C1O` [Vitamin C (Ascorbic acid)] the fraction was 0.0553 ± 0.055. `Cc1cc(=O)[nH]c(=S)[nH]1` [Methylthiouracil] gave a fraction of 0.0872 ± 0.12. `O=C(CCNNC(=O)c1ccncc1)NCc1ccccc1` [Nialamide] showed a fraction of 0.165 ± 0.24. In the case of `Cc1nccn1CC1CCc2c(c3ccccc3n2C)C1=O` (stereo not given) [Ondansetron (Zofran)], the fraction is reported as 0.0942 ± 0.14.

Reference: the supplement of paper PMC12542422
